# Results taken from publication PMC6798794.
# Protein sequences, listed by entry. Tags and fused reporters are not part of them. Residues count along the entry.
# UniProt Q704Y3: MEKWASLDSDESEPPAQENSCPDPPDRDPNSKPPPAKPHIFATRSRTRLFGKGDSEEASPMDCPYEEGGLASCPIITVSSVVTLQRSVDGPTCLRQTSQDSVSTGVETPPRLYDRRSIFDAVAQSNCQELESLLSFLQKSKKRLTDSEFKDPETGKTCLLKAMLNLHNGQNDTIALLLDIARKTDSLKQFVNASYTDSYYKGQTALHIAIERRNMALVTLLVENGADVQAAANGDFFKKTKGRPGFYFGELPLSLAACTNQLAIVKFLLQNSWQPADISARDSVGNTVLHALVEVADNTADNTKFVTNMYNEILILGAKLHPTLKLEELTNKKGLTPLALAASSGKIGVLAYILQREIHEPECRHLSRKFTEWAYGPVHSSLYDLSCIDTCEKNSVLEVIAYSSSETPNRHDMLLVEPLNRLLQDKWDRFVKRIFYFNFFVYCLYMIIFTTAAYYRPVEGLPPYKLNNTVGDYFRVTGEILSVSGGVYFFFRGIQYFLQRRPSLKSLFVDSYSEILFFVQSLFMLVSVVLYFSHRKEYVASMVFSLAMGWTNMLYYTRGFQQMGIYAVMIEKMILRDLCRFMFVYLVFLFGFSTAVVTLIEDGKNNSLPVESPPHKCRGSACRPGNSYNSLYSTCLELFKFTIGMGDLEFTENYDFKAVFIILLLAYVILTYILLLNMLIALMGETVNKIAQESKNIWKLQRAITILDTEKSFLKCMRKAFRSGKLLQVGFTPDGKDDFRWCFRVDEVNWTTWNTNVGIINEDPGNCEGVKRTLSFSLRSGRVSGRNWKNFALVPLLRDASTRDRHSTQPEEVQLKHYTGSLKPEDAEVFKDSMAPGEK
# UniProt Q9QUK6, residues 26-835: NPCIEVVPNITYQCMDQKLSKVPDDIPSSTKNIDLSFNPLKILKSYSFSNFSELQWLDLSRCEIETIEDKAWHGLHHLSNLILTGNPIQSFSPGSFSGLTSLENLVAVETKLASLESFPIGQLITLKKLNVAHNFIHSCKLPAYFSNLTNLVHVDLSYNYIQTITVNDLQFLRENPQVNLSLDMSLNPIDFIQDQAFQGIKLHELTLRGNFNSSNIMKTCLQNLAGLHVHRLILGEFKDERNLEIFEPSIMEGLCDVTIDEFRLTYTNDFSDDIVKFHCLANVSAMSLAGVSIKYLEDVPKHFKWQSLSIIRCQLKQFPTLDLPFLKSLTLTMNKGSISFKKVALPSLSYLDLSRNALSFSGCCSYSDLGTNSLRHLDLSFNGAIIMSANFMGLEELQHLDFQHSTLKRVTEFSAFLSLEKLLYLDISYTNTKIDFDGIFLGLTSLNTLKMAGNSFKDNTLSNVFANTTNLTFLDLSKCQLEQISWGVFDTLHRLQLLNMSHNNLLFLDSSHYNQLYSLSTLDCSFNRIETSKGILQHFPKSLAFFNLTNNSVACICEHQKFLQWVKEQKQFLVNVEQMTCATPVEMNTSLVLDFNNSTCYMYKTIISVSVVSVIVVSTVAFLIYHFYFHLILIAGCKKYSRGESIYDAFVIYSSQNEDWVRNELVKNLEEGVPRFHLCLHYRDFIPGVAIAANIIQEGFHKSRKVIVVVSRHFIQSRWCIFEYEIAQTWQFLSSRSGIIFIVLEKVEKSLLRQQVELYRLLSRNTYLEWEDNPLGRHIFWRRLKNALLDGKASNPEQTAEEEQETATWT
# These are yes or no findings as the source states them, for the method shown. In cells and extracts the contact can be indirect. Some entries that bind do so weakly or less than the wild type.
# Tests used:
# [1] = biological target: Transient receptor potential vanilloid type 1 (mouse (endogenous in primary cultured microglia)) (UniProt Q704Y3); experiment: co-IP; 500-600 ug total protein of cultured microglia in IP lysis buffer, incubated with 2 ug rabbit anti-TRPV1, mouse anti-TLR4 or control IgG and protein A/G agarose beads overnight at 4°C; washed three times; western blot
# [2] = biological target: Toll-like receptor 4 (mouse (endogenous in primary cultured microglia)) (UniProt Q9QUK6); experiment: as above
Substance,binding [1],binding [2]
Toll-like receptor 4 (from UniProt Q9QUK6 26-835),binds,
Transient receptor potential vanilloid type 1 (from UniProt Q704Y3 1-839),,binds
